Data as given in patent US7410967B2 (priority 2002, dated 2008).
Like-named read-outs stand apart in the source and are kept apart here. Some of these results come from one statement about several compounds together.

Tests used:
[1] = system: Erysiphe graminis f.sp. hordei; format: in vivo
Pyricularia oryzae = format: in vivo; conditions: 200 ppm sprayed on rice leaf segments; preventive fungicidal activity; assessed four days after inoculation
Septoria nodorum = format: in vivo
[2] = system: Puccinia recondita f.sp. tritici; format: in vivo
[3] = system: Erysiphe graminis f.sp. tritici; format: in vivo
Botrytis cinerea = format: in vivo; conditions: 200 ppm sprayed on bean leaf disks; preventive fungicidal activity; assessed four days after inoculation
Pyrenophora teres = format: in vivo
Phzytophthora infestans = format: in vivo, Phytophthora infestans; conditions: 200 ppm sprayed on tomato leaf disks; preventive fungicidal activity; assessed four days after inoculation
Plasmopara viticola = format: in vivo; conditions: 200 ppm sprayed on grapevine leaf disks; preventive fungicidal activity; assessed seven days after inoculation
[4] = 200 ppm sprayed on barley leaf segments, preventive fungicidal activity, assessed four days after inoculation
[5] = 200 ppm sprayed on wheat leaf segments, preventive fungicidal activity, assessed four days after inoculation
[6] = 200 ppm sprayed on wheat leaf segments, preventive fungicidal activity, assessed nine days after inoculation

Measured: control of disease

Fc1cc(F)c(-c2c(Cl)nc3nccnc3c2NC2CCCC2)c(F)c1 [16 (1)]
greater than 60%: [1]; [4] | Pyricularia oryzae | Septoria nodorum; [5] | [2]; [6] | [3]; [5] | Botrytis cinerea | Pyrenophora teres; [4]

CC(C)CNc1c(-c2c(F)cc(F)cc2F)c(Cl)nc2nccnc12 [58 (1)]
greater than 60%: [1]; [4] | Pyricularia oryzae | Septoria nodorum; [5] | [2]; [6] | [3]; [5] | Botrytis cinerea | Pyrenophora teres; [4]

CCC(C)Nc1c(-c2c(F)cc(F)cc2F)c(F)nc2nccnc12 (centres unmarked) [23 (103)]
greater than 60%: [1]; [4] | Pyricularia oryzae | Septoria nodorum; [5] | [2]; [6] | [3]; [5] | Botrytis cinerea | Pyrenophora teres; [4]

CC(C)Nc1c(-c2c(F)cc(F)cc2F)c(Cl)nc2nccnc12 [3 (1), [6-chloro-7-(2,4,6-trifluorophenyl)-pyrido[2,3-b]pyrazin-8-yl]-isopropylamine]
greater than 60%: [1]; in vivo | Pyricularia oryzae | Phzytophthora infestans | Septoria nodorum; in vivo | [2]; in vivo | [3]; in vivo | Pyrenophora teres; in vivo

CC(C)CNc1c(-c2ccccc2F)c(F)nc2nccnc12 [23890 (103)]
greater than 60%: [1]; [4] | Pyricularia oryzae | Septoria nodorum; [5] | [2]; [6] | [3]; [5] | Botrytis cinerea | Pyrenophora teres; [4]

CC(C)CNc1c(-c2c(F)cccc2Cl)c(Cl)nc2nccnc12 [58 (5)]
greater than 60%: [1]; [4] | Pyricularia oryzae | Phzytophthora infestans | Septoria nodorum; [5] | [2]; [6] | [3]; [5] | Botrytis cinerea

CC1CCN(c2nc3nccnc3c(Cl)c2-c2c(F)cccc2Cl)CC1 [22 (10)]
greater than 60%: Pyricularia oryzae | Plasmopara viticola

CCC(C)Nc1c(-c2ccccc2F)c(F)nc2nccnc12 (centres unmarked) [23855 (103)]
greater than 60%: [1]; [4] | Pyricularia oryzae | Septoria nodorum; [5] | [2]; [6] | [3]; [5] | Botrytis cinerea | Pyrenophora teres; [4]

CCC(C)Nc1c(-c2c(F)cccc2Cl)c(Cl)nc2nccnc12 (centres unmarked) [23 (5)]
greater than 60%: [1]; [4] | Pyricularia oryzae | Plasmopara viticola | [2]; [6]

CC(C)CNc1nc2nccnc2c(Cl)c1-c1c(F)cc(F)cc1F [58 (6)]
greater than 60%: Plasmopara viticola

CCC(C)Nc1nc2nccnc2c(Cl)c1-c1c(F)cccc1Cl (centres unmarked) [23 (10)]
greater than 60%: [1]; [4] | Plasmopara viticola

Fc1cc(F)c(-c2c(Cl)nc3nccnc3c2N2CCOCC2)c(F)c1 [20 (1)]
greater than 60%: Pyricularia oryzae | Plasmopara viticola

Fc1cc(F)c(-c2c(Cl)nc3nccnc3c2NC2CCC2)c(F)c1 [15 (1)]
greater than 60%: [1]; [4] | Pyricularia oryzae | Septoria nodorum; [5] | [2]; [6] | [3]; [5] | Botrytis cinerea | Pyrenophora teres; [4]

CCCCNc1c(-c2c(F)cc(F)cc2F)c(Cl)nc2nccnc12 [4 (1)]
greater than 60%: Pyricularia oryzae | Plasmopara viticola | [3]; [5] | Botrytis cinerea

C=CCNc1nc2cnncc2c(Cl)c1-c1c(F)cc(OC)cc1F [6 (120)]
greater than 60%: Plasmopara viticola

COc1cc(F)c(-c2c(N[C@@H](C)C(F)(F)F)nc3cnncc3c2Cl)c(F)c1 [12 (120)]
greater than 60%: Plasmopara viticola

Fc1cc(F)c(-c2c(N3CCCCC3)nc3nccnc3c2Cl)c(F)c1 [162 (6)]
greater than 60%: Plasmopara viticola

Fc1cccc(Cl)c1-c1c(N2CCCCC2)nc2nccnc2c1Cl [162 (10)]
greater than 60%: Phzytophthora infestans | [2]; [6] | [3]; [5]

CC(C)Nc1c(-c2c(F)cc(F)cc2F)c(F)nc2nccnc12 [3 (103), [6-fluoro-7-(2,4,6-trifluorophenyl)pyrido[2,3-b]pyrazin-8-yl]-isopropylamine]
greater than 60%: [1]; in vivo | Pyricularia oryzae | Phzytophthora infestans | [2]; in vivo | [3]; in vivo | Pyrenophora teres; in vivo
